Assay results from the supplement of paper PMC10382679.
Single values of this set are uncertain.

B1: Rpb7; numbered along this chain (parent)
chain: MFFIKDLSLNITLHPSFFGPRMKQYLKTKLLEEVEGSCTGKFGYILCVLDYDNIDIQRGRILPTDGSAEFNVKYRAVVFKPFKGEVVDGTVVSCSQHGFEVQVGPMKVFVTKHLMPQDLTFNAGSNPPSYQSSEDVITIKSRIRVKIEGCISQVSSIHAIGSIKEDYLGAI

Key:
[1] = variants of: B1; experiment: log2 fold change of mutant abundance, UV-irradiated vs unirradiated; higher = more UV resistant (enriched after UV); details: with Saccharomyces cerevisiae rad7Δ rad26Δ; UV dose (J/m2): 10; genetic background: rad7Δ rad26Δ rpb7Δ + plasmid RPB7 library; outgrowth: 10 cell divisions
Description: (§1)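 Error-prone PCR random mutant library of yeast RPB7 (codons 2-171) on a LEU2 plasmid, shuffled into rad7Δ rad26Δ S. cerevisiae (BJ5465 background) with genomic RPB7 deleted. Cells were irradiated with 10 J/m2 UV (254 nm) or left unirradiated and grown for 10 divisions. Plasmid RPB7 amplicons were Illumina-sequenced and per-codon amino-acid counts were compared UV vs no UV with NOISeq (3 repeats, ARSyNseq batch correction). Positive log2FC means enrichment after UV, i.e. UV resistance / derepressed TCR.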

[2] = variants of: B1; experiment: NOISeq theta enrichment statistic, UV-irradiated vs unirradiated (dimensionless); higher = more UV resistant (enriched after UV); details: with Saccharomyces cerevisiae rad7Δ rad26Δ; UV dose (J/m2): 10; genetic background: rad7Δ rad26Δ rpb7Δ + plasmid RPB7 library; outgrowth: 10 cell divisions
Description: as §1

Variant | log2 fold change of mutant abundance [1] | NOISeq theta enrichment statistic [2]
I54S | 0.103 | 0.0604
I54L | -0.0544 | -0.251
I54N | 0.799 | 0.413
I54M | 0.0702 | 0.212
I54Y | -0.327 | -0.134
D55G | -0.103 | -0.323
D55P | 0.255 | 0.224
D55Y | -0.0551 | -0.227
D55I | 0.0701 | 0.0842
D55C | 0.0809 | 0.0497
D55V | -0.162 | -0.806
D55E | 0.171 | 0.48
D55N | 0.0303 | 0.0688
D55H | 0.188 | 0.231
D55A | 0.057 | 0.0846
D55S | -0.273 | -0.205
D55F | -0.618 | -0.37
D55K | -0.152 | -0.119
D55R | -0.559 | -0.238
D65V | 0.176 | 0.798
D65S | 0.0151 | 0.0125
D65N | 0.244 | 0.587
D65G | 0.0295 | 0.0852
D65H | 0.0161 | 0.0202

Variant | log2 fold change of mutant abundance [1] | NOISeq theta enrichment statistic [2]
D65Y | 0.0223 | 0.0714
D65C | -0.539 | -0.353
D65T | -0.144 | -0.116
D65R | -0.259 | -0.122
D65M | 0.0943 | 0.108
D65E | 0.0307 | 0.157
D65K | -0.158 | -0.124
D65A | 0.112 | 0.193
D65F | 0.199 | 0.124
D65I | 0.294 | 0.188
D65L | 0.608 | 0.391
A68F | 0.4 | 0.294
A68P | 0.0545 | 0.101
A68V | 0.0503 | 0.189
A68S | 0.114 | 0.406
A68I | -0.435 | -0.241
A68G | 0.0879 | 0.121
A68T | -0.00852 | -0.0323
A68D | -0.0809 | -0.108
A68R | -0.333 | -0.152
A68N | 1.36 | 0.699
N53D | 0.106 | 0.395
N53S | 0.0653 | 0.18
N53H | -0.0811 | -0.125

Variant | log2 fold change of mutant abundance [1] | NOISeq theta enrichment statistic [2]
N53V | 0.16 | 0.0819
N53I | 0.308 | 1.49
N53T | 0.0449 | 0.0805
N53Y | 0.0565 | 0.228
N53K | 0.104 | 0.36
N53M | -0.155 | -0.082
N53R | 0.848 | 0.525
N53C | 1.66 | 0.748
N53F | 0.00203 | 0.00122
N53P | 0.179 | 0.123
Y51F | 0.0285 | 0.148
Y51K | -0.223 | -0.124
Y51L | 0.0538 | 0.052
Y51E | 1.12 | 0.527
Y51I | 0.327 | 0.24
Y51Q | -0.395 | -0.15
Y51S | 0.0769 | 0.132
Y51V | 0.441 | 0.3
Y51D | -0.0475 | -0.0729
Y51H | -0.000122 | -0.000295
Y51C | 0.106 | 0.38
Y51N | -0.0215 | -0.0708
Y51M | -0.0798 | -0.0916
T64P | -0.0417 | -0.101

Variant | log2 fold change of mutant abundance [1] | NOISeq theta enrichment statistic [2]
T64K | 0.08 | 0.185
T64M | 0.369 | 0.213
T64S | -0.00199 | -0.0126
T64A | -0.0215 | -0.107
T64L | 0.289 | 0.214
T64V | -0.066 | -0.0471
T64H | -0.174 | -0.0927
T64N | 0.0828 | 0.0763
T64I | -0.0156 | -0.0595
T64R | -0.316 | -0.503
T64Q | 0.00212 | 0.0029
S67Y | -0.00106 | -0.00276
S67A | 0.11 | 0.259
S67L | -0.291 | -0.305
S67V | -0.194 | -0.154
S67I | -0.0813 | -0.0444
S67T | 0.129 | 0.477
S67D | -0.452 | -0.285
S67F | -0.027 | -0.104
S67H | 0.000577 | 0.000327
S67P | -0.0289 | -0.082
S67C | 0.00686 | 0.0105
P63N | 0.21 | 0.118
P63L | -0.0945 | -0.373

Complete entries, quoted from the list.
N53C reads log2 fold change of mutant abundance [1] = 1.66; NOISeq theta enrichment statistic [2] = 0.748
S67P reads log2 fold change of mutant abundance [1] = -0.0289; NOISeq theta enrichment statistic [2] = -0.082
A68V reads log2 fold change of mutant abundance [1] = 0.0503; NOISeq theta enrichment statistic [2] = 0.189

Following part:

Variant | log2 fold change of mutant abundance [1] | NOISeq theta enrichment statistic [2]
P63S | -0.134 | -0.484
P63A | -0.0028 | -0.00445
P63H | -0.131 | -0.529
P63T | 0.0672 | 0.214
P63Q | -0.0446 | -0.0295
P63F | -0.00793 | -0.00571
P63Y | -0.48 | -0.341
P63R | 0.105 | 0.189
L62P | -0.673 | -0.352
L62W | -0.161 | -0.228
L62S | 0.103 | 0.395
L62C | -0.0536 | -0.0683
L62F | -0.0279 | -0.135
L62V | -0.327 | -0.449
L62K | 0.316 | 0.205
L62Q | -0.88 | -0.342
L62M | -0.0485 | -0.247
L62T | -1.02 | -0.469
L62Y | -0.097 | -0.071
L62I | -0.0668 | -0.0534
